Measured values as given in patent US20250269000A1, “ANTI-TUMOUR RESPONSES TO CYTOKERATINS” (SCANCELL LIMITED, priority 2020, published 2025).
Part of at least one peptide drawing is inferred or uncertain, most often the ends. Where a SMILES comes first, the peptide text is derived from it. [ ]: non-standard residue; d: D form. Cit = NC(=O)NCCC[C@H](N)C(=O)O

Legend:
C57BL/6 mice = assay: Ex vivo IFNγ ELISpot on splenocytes of peptide-immunised C57BL/6 mice; format: in vivo, mouse
[1] = system: HHDII/DP4 transgenic mice; assay: Ex vivo IFNγ ELISpot on splenocytes of peptide-immunised HHDII/DP4 mice; format: in vivo, mouse; conditions: for IFNγ responses detected in immunised mice: 25 μg peptide s.c. with CpG/MPLA once a week for three weeks, ELISpot 7 days after third immunisation
Procedure: The HHDII/HLA-DP4 transgenic strain of mouse as described in patent WO2013/017545 A1 (EMMA repository, France) and C57BL/6 mice (Charles River, UK) were used, aged between 8 and 12 weeks, and cared for by the staff at Nottingham Trent University. All work was carried out under a Home Office project licence. Peptides were dissolved in 10% dimethylformamide to 1 mg/mL and then emulsified (a series of dilutions) with the adjuvant CpG and MPLA 6 μg/mouse of each (Invivogen, UK). Peptides (25 μg/mouse) were injected subcutaneously at the base of the tail.
ELISpot assays were performed using murine IFNγ capture and detection reagents according to the manufacturer's instructions (Mabtech, Sweden). In brief, anti-IFNγ antibody was coated onto wells of a 96-well Immobilin-P plate. Synthetic peptides (at a variety of concentrations) and 5×10^5 per well splenocytes were added to the wells of the plate in triplicate. LPS at 5 μg/mL was used as a positive control. Peptide pulsed target cells were added where relevant at 5×10^4 per well in triplicate and plates incubated for 40 hours at 37° C. After incubation, captured IFNγ was detected by a biotinylated anti-IFNγ antibody and developed with a streptavidin alkaline phosphatase and chromogenic substrate. Lipopolysaccharide (LPS; 5 μg/mL) was used as a positive control. For blocking studies, anti-CD4 blocking antibody (RPA-T4) and anti-CD8 blocking antibody (2.43) from Bioxcell were used at 20 μg/mL. Spots were analysed and counted using an automated plate reader (Cellular Technologies Ltd).
HHDII/DP4 and C57BL/6 mice were immunised with human citrullinated peptides in combination with CpG/MPLA as an adjuvant. 25 μg of peptide was administered subcutaneously as a single immunisation given once a week for three weeks Mice were culled 7 days after the third immunisation, the immune response to each peptide was assessed by ex vivo IFNγ ELISpot (FIG. 2). We have previously shown that citrullinated peptides can induce responses in the transgenic DR4 mouse strain. Given that different mouse strains have different MHC repertoires, the transgenic strain HHDII/DP4 and non-transgenic C57BL/6 mice were used for screening.
To determine if the immune response to the Cyk8 peptides is specific to the citrullinated peptide and not the wild type (wt) version, HHDII/DP4 transgenic mice were immunised with Cyk8 101-120 cit, 133-151 cit, 217-236 cit, 371-388 cit, 381-399 cit or Cyk8 101 wt, 133-151 wt, 371-388 wt peptides. HHDII/DP4 mice received 25 μg peptide with CpG/MPLA subcutaneously once a week for three weeks. Mice were culled 7 days after the third immunisation, the immune response to each peptide was assessed by ex vivo ELISpot (FIGS. 3A and 3B).
To determine whether the response to Cyk8 8-26 cit, Cyk8 101-120 cit, Cyk8 133-151 cit, Cyk8 371-388 cit, Cyk8 381-399 cit is CD4 dependent HHDII/DP4 transgenic mice and C57BL/6 mice received 25 μg peptide subcutaneously in combination with CpG/MPLA as an adjuvant, once a week for three weeks (FIG. 6A HHDII/DP4, FIG. 6B C57BL/6). Mice were culled 7 days after the third immunisation, an ELISpot assay was performed in the presence of an anti CD4 or CD8 antibody. […]

[2] = system: B16 HHDII/iDP4 tumour cells; assay: Tumour challenge, B16 HHDII/iDP4 in HHDII/DP4 mice; format: in vivo
Text: HHDII/DP4 mice were challenged with B16 tumour with IFNγ inducible DP4. Four days later the HHDII/DP4 mice were immunised with Cyk8 371-388 cit or Cyk8 371-388 wt peptide on days 4, 11 and 18. Overall survival (A), tumour volume (B) at day 29 and tumour volume throughout the study (C), post tumour implant are shown for unimmunised control mice and mice immunised with either Cyk8 371-388 cit peptide or Cyk8 371-388 wt peptide. Statistical differences between immunised and control mice were determined by Mantel-Cox test, p values are shown. The tumour volume medians and p values are shown as determined by Mann Whitney U test, n=10 in all group.
HHDII/DP4 mice were challenged with B16 tumour with IFNγ inducible DP4. Four days later the HHDII/DP4 mice were immunised with Cyk8 371-388 cit peptide on days 4, 11 and 18. Overall survival (A), tumour volume (B) at day 24 and tumour volume throughout the study (C), post tumour implant are shown for unimmunised control mice and mice immunised with Cyk8 101-120 cit peptide. Statistical differences between immunised and control mice were determined by Mantel-Cox test, p values are shown. The tumour volume medians and p values are shown as determined by Mann Whitney U test, n=10 in all group.
For tumour challenge experiments, mice were challenged with 1×10^5 B16 HHDII/iDP4 cells subcutaneously on the right flank […] before primary immunisation (unless stated otherwise) and then immunised as described above. Tumour growth was monitored at 3-4 days intervals and mice humanely euthanised once tumour reached ≥10 mm in diameter.
The effect of immunisation with Cyk8 371-388 (cit and wt) on the growth of the mouse B16 melanoma cell line transfected with IFNγ inducible human DP4 (iDP4) was assessed in HHDII/DP4 transgenic mice (FIG. 9A). […]
The effect of immunisation with Cyk8 101-120 cit on the growth of the mouse B16 melanoma cell line transfected with IFNγ inducible human DP4 (iDP4) was assessed in HHDII/DP4 transgenic mice (FIG. 10A). […]

[3] = system: PBMCs from healthy donors; assay: CFSE proliferation assay, PBMCs from healthy donors; format: cell-based, human
[4] = system: PBMCs from lung cancer patients; assay: CFSE proliferation assay, PBMCs from lung cancer patients; format: cell-based, human
[5] = system: PBMCs from ovarian cancer patients; assay: CFSE proliferation assay, PBMCs from ovarian cancer patients; format: cell-based, human
[6] = system: PBMCs from one healthy donor; assay: Phenotyping of proliferating T cell populations by flow cytometry; format: cell-based, human; conditions: day 10
[7] = C57BL/6, blocking antibody 20 μg/mL
[8] = HHDII/DP4, blocking antibody 20 μg/mL

SMILES: CC(C)[C@H](NC(=O)[C@H](CCCCN)NC(=O)[C@H](Cc1ccc(O)cc1)NC(=O)[C@H](CO)NC(=O)[C@@H](N)CCCCN)C(=O)N[C@@H](CO)C(=O)N[C@H](C(=O)N[C@@H](CO)C(=O)NCC(=O)N1CCC[C@H]1C(=O)N[C@@H](CCCNC(N)=O)C(=O)N[C@@H](C)C(=O)N[C@@H](Cc1ccccc1)C(=O)N[C@@H](CO)C(=O)N[C@@H](CO)C(=O)N[C@@H](CCCNC(N)=O)C(=O)N[C@@H](CO)C(=O)N[C@@H](Cc1ccc(O)cc1)C(=O)N[C@H](C(=O)O)[C@@H](C)O)[C@@H](C)O [Cyk8 8-26 cit, KSYKVSTSGP-cit-AFSS-cit-SYT] (H-KSYKVSTSGP[Cit]AFSS[Cit]SYT-OH)
- IFNγ response in the presence of the CD8 antibody (C57BL/6 mice; [7]): not significantly reduced
- IFNγ response in the presence of the anti CD4 antibody (C57BL/6 mice; [7]): significantly reduced
- IFNγ response to citrullinated peptide compared to media only (C57BL/6 mice; screening, C57BL/6 mice, 25 μg peptide with CpG/MPLA weekly for three weeks): significant response

SMILES: CC[C@H](C)[C@H](NC(=O)[C@H](Cc1ccccc1)NC(=O)[C@H](CO)NC(=O)[C@H](C)NC(=O)[C@H](Cc1ccccc1)NC(=O)[C@@H](N)CCCCN)C(=O)N[C@@H](CC(=O)O)C(=O)N[C@@H](CCCCN)C(=O)N[C@H](C(=O)N[C@@H](CCCNC(N)=O)C(=O)N[C@@H](Cc1ccccc1)C(=O)N[C@@H](CC(C)C)C(=O)N[C@@H](CCC(=O)O)C(=O)N[C@@H](CCC(N)=O)C(=O)N[C@@H](CCC(N)=O)C(=O)N[C@@H](CC(N)=O)C(=O)N[C@@H](CCCCN)C(=O)N[C@@H](CCSC)C(=O)N[C@@H](CC(C)C)C(=O)N[C@@H](CCC(=O)O)C(=O)O)C(C)C [Cyk8 101-120 cit, KFASFIDKV-cit-FLEQQNKMLE] (H-KFASFIDKV[Cit]FLEQQNKMLE-OH)
- IFNγ responses detected in immunised mice [1]: Moderate to high
- IFNγ response in the presence of the CD8 antibody [1, 8]: not significantly reduced
- IFNγ response in the presence of the anti CD4 antibody [1, 8]: significantly reduced
- cross-reactivity of the response to the wt version ([1]; HHDII/DP4 mice immunised with cit peptide): no cross-reactivity
- IFNγ response to citrullinated peptide compared to media only ([1]; screening, HHDII/DP4 mice, 25 μg peptide with CpG/MPLA weekly for three weeks): significant immune responses
- T cell responses in HLA-DP4 transgenic mice ([1]; summary statement): potent T cell responses
- reactivity to the unmodified wildtype sequence ([1]; summary statement): minimal reactivity
- tumour volume, median ([2]; day 24 post tumour implant): 2 mm^3
- donors with CD4 peptide specific proliferating (CFSE low) population ([3]; day 7, peptide 10 μg/mL): four out of eighteen
- donors whose proliferating CD4 specific T cells expressed Granzyme B ([3]; day 10): two out of five
- donors whose proliferating CD4 specific T cells expressed IFNγ ([3]; day 10): four out of five
- donors whose proliferating CD4 specific T cells expressed CD134 ([3]; day 10, above media control background): all five
- donors with CD4 peptide specific proliferating (CFSE low) population ([3]; day 10, peptide 10 μg/mL): six out of eighteen
- patients with CD4 peptide specific proliferating (CFSE low) population ([4]; day 7): one out of five
- patients with CD4 peptide specific proliferating (CFSE low) population ([4]; day 10): none
- expression of functional markers (CD134, IFNγ) on proliferating CD4 specific T cells ([4]; one lung cancer patient): did not show any expression
- patients with specific expression of Granzyme B on proliferating CD4 T cells [5]: one out of four
- specific expression of IFNγ on proliferating CD4 T cells [5]: not IFNγ
- patients with specific expression of CD134 on proliferating CD4 T cells ([5]; above media control background): one out of four
- patients with peptide specific proliferating (CFSE low) population ([5]; day 7): three out of twelve
- patients with peptide specific proliferating (CFSE low) population ([5]; day 10): four out of twelve
- TEMRA cells among peptide specific proliferating CD4 T cells [6]: 5.96%
- central memory cells among peptide specific proliferating CD4 T cells [6]: 32.75%
- effector memory cells among peptide specific proliferating CD4 T cells [6]: 52.91%
- naive T cells among peptide specific proliferating CD4 T cells [6]: 8.38%

SMILES: CC[C@H](C)[C@H](NC(=O)[C@H](CCC(=O)O)NC(=O)[C@@H](NC(=O)[C@H](CC(=O)O)NC(=O)[C@H](CC(C)C)NC(=O)[C@H](C)NC(=O)[C@H](CC(C)C)NC(=O)[C@H](CCCCN)NC(=O)[C@@H](NC(=O)[C@H](CC(N)=O)NC(=O)[C@H](CCSC)NC(=O)[C@H](CC(C)C)NC(=O)[C@H](CCC(=O)O)NC(=O)[C@H](CCC(N)=O)NC(=O)[C@H](Cc1ccc(O)cc1)NC(=O)[C@H](CCC(=O)O)NC(=O)[C@H](CCCNC(=N)N)NC(=O)[C@@H](N)CC(C)C)C(C)C)[C@@H](C)CC)C(=O)O [Cyk8 371-388 wt, LREYQELMNVKLALDIEI, reference compound] (H-LREYQELMNVKLALDIEI-OH)
- IFNγ responses detected in immunised mice [1]: Low to moderate
- tumour volume, median ([2]; day 29 post tumour implant): 4 mm^3
